This is an account of results in patent publication US6087334A (Amylin Pharmaceuticals, Inc., priority 1998, dated 2000).

HELM strings list residues between dots; [ac] is acetyl, [am] amide, other brackets name non-standard units. The same purity stands for every peptide and may come from a single statement.

This data set can be described thus: general procedure: Fmoc solid-phase peptide synthesis; 4-(2'-4'-dimethoxyphenyl)-Fmoc aminomethyl phenoxy acetamide norleucine MBHA resin (Novabiochem, 0.55 mmole/g); HATU / diisopropylethylamine. The note with it: whole synthesis.

As to “PEPTIDE1{K.C.N.T.A.T.C.A.T.A.R.L.A.A.F.L.A.R.S.S.G.Y.[am]}$PEPTIDE1,PEPTIDE1,2:R3-7:R3$$$V2.0”, the “crude purity (method not given)” value is “about 75%”; the difficulty met result was “at some positions coupling was less efficient than expected and double couplings were required”.

In the case of “PEPTIDE1{L.S.T.A.A.T.A.R.L.A.A.F.L.A.R.S.[am]}$$$$V2.0”, the “crude purity (method not given)” value was “about 75%”; the difficulty met result was “at some positions coupling was less efficient than expected and double couplings were required”.

Regarding “PEPTIDE1{[isocaproyl].L.S.T.A.A.T.A.R.L.A.A.F.L.A.R.S.[am]}$$$$V2.0”, the “crude purity (method not given)” value is listed as “about 75%”; the difficulty met result is “at some positions coupling was less efficient than expected and double couplings were required”.
